Source: ChEMBL document CHEMBL4196032, “Conformational mimetics of the α-methyl chalcone TUB091 binding tubulin: Design, synthesis and antiproliferative activity” (Eur J Med Chem, 2018)

Test system: HMEC-1
Assay: Antiproliferative activity against human HMEC1 cells after 4 days by coulter counting method
Assay type: cell-based
Conditions: HMEC-1, 96 h
Outline: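 HMEC-1 seeded at 20,000 cells/well; 5-fold compound dilutions added after 24 h; 4 days proliferation, trypsinized, Coulter counted. IC50 taken as concentration giving 50% reduction in cell proliferation.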

**Q.** `COc1cc2c(c(OC)c1OC)-c1ccc(OC)c(=O)cc1[C@@H](NC(C)=O)CC2` [COLCHICINE] was tested. Which IC50 did it give?
**A.** The IC50 was 3.8 nM.
